Measurements from “University of Dundee, Small-Polar-MMV Screening Library” (2021), ChEMBL document CHEMBL3988442.

Results are given as percent effect.
The controls that fix the scale are not given in the record; negative values are as filed.
The compounds are a random part of those screened.

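Assay of Toxoplasma gondii numbers, read through their beta-galactosidase reporter with a colour substrate. Compounds at 50 µM. Higher reads as fewer parasites (inferred from which compounds were picked for retests). About 18,000 compounds were tested under these conditions; 0.94% (about 170) showed 50% or more at least once.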

- O=C(c1cc(Cl)c[nH]1)N1CCNCC1 : 4.116%
- CC(C)c1csc(C(=O)N2CCn3cncc3C2)n1 : 10.56%
- Cc1ccc(C(=O)NCC(=O)NC(C)(C)C)c(O)c1 : -6.892%
- OCCCNC1CC1 : -21.64%
- CC(=O)NC1CCN(Cc2ccc(F)c(F)c2)CC1 : -22.27%
- CC1CCN(C(=O)c2cnn(-c3cccnc3)c2)CC1 : -27.65%
- CNC(=O)NCc1ccc(S(=O)(=O)N(C)C)s1 : 10.13%
- Cc1cc(CC(=O)N2C[C@@H](CO)[C@H](N(C)C)C2)on1 : -3.192%
- COc1cc(NC(=O)N2CCCC(N)C2)ccc1C (centres undefined) : -2.099%
- Cc1nnc(CN(C)CC2CCN(C)C2(C)C)o1 (centres undefined) : -3.521%
- O=c1[nH]ncc(NCc2cccc3c2OCO3)c1Cl : 1.174%
- CCS(=O)(=O)N(C)CCCNc1ccc(C)c(C#N)n1 : -3.825%
- NCCCN1CCN(c2ccccc2)CC1 : 0.9017%
- CC(=O)N1CCCN(S(=O)(=O)N(C)C(C)C)CC1 : -4.617%
- COc1ccc(S(=O)(=O)N2CCC(N)CC2)cc1OC : -12.72%
- CCCn1ncnc1C(C)NC(=O)c1cnccn1 (centres undefined) : -0.1455%
- CC(C)CCn1c(CO)cnc1S(=O)(=O)CC(C)C : -3.327%
- CCN(CC)S(=O)(=O)CC(=O)Nc1ccc(F)c(C)c1 : 25.55%
- CC[C@@]1(O)CCN(c2cc(N)nc(SC)n2)C[C@H]1O : -3.136%
- CCc1cccc(NC(=O)C2CCCN(C(C)=O)C2)c1 (centres undefined) : 4.153%
- NCCCc1ccccn1 : 1.716%
- COc1ccncc1NC(=O)c1ccc2c(c1)OCO2 : -10.71%
- CC(C)c1cc(CN)on1 : 7.557%
- CN1CCN(C(=O)CCn2cncn2)CC1 : 10.49%
- CCN1CCN(C(=O)NCc2ccccc2OC)CC1 : -5.82%
- O=C(c1cc2ccccc2[nH]1)N1CCCC1 : 3.664%
- CC(C)N1CC2CCC(C1)C2N (centres undefined) : -0.56%
- CN(C)C(=O)NCCNc1cccc(Br)c1 : -13.02%
- CCCNC(C)C(=O)Nc1ccccc1 (centres undefined) : 9.982%
- c1cc(OC2CCNCC2)ccn1 : -3.966%
- O=C1CN(C(=O)C2=CCCC2)c2ccccc2N1 : -11.86%
- Cc1ccc(C)c(NC(=O)CCN2CCOCC2)c1 : 0.2697%
- CN(CCn1cccn1)c1cc(Br)ccn1 : -9.965%
- CC1CCc2onc(C(=O)Nc3cccnc3)c2C1 (centres undefined) : -67.27%
- CS(=O)(=O)c1nccn1CCOc1ccccc1 : -6.543%
- COc1cc(S(=O)(=O)n2cccn2)c(OC)cc1Br : -3.956%
- C[C@@H]1CN(C(=O)c2cn(CCN)nn2)C[C@]1(C)O : -15.71%
- NCCC(=O)N1CCOc2ccccc2C1 : 11.72%
- CCCn1cnnc1CNCC(=O)Nc1cnccn1 : -1.017%
- CNCc1nnc(C)o1 : -3.159%
- CCN(CC)CCNC(=O)c1ccc(S(C)(=O)=O)cc1 : 0.5433%
- COCC1CCN(CC(=O)Nc2ccn(C)n2)C1 (centres undefined) : -7.281%
- CC(C)(C)C(=O)Nc1ccc(Cl)c(C(N)=O)c1 : 18.39%
- CN(C)C(=O)CN1CCCC(CO)(CC2CC2)C1 (centres undefined) : 6.038%
- Cc1nc(C)c(I)c(N)n1 : 15.11%
- O=S1(=O)CCC(NC2CCCC2)C1 (centres undefined) : -4.731%
- CCCn1cc(C)c(N)n1 : -2.628%
- O=C(COCC(F)(F)F)NCCn1ccnc1 : 20.69%
- COc1ccnc(NC2CCCNC2=O)n1 (centres undefined) : 11.46%
- CCn1cc(CNC2(C(=O)OC)CC2)cn1 : 11.78%
- CC(=O)N(CC1CCCN1)C1CC1 (centres undefined) : -5.058%
- C[C@@H](N)C(=O)N1CCCC1Cc1cccc(F)c1 (some centres undefined) : 17.33%
- CC(NC(=O)CNc1cc(F)cc(Br)c1)C(=O)N(C)C (centres undefined) : 13.21%
- COCCCN(C)S(=O)(=O)c1ccc(Br)cn1 : 0.513%

The first 5 entries again:

structure	effect
O=C(c1cc(Cl)c[nH]1)N1CCNCC1	4.116
CC(C)c1csc(C(=O)N2CCn3cncc3C2)n1	10.56
Cc1ccc(C(=O)NCC(=O)NC(C)(C)C)c(O)c1	-6.892
OCCCNC1CC1	-21.64
CC(=O)NC1CCN(Cc2ccc(F)c(F)c2)CC1	-22.27